In PubChem BioAssay AID540276 (National Center for Advancing Translational Sciences (NCATS), 2011):
About 5,400 (1.8%) of roughly 300,000 compounds were called active. The shares of active, inactive and inconclusive entries below differ from those in the screen. Calls come from the whole dose curve; tested in HEK293 cells. Potencies beside an inconclusive call are fits to weak or partial responses and may not hold up.

Assay: qHTS for inhibitors of binding or entry into cells for Marburg Virus
Conditions: Marburg virus pseudotyped entry inhibition, cell reporter; series mostly up to 37.8 µM
Potency is the fitted concentration of half-maximal effect.

SMILES | Potency
CCN(CC)c1ccc(C(=S)NC2CCCCC2)cc1 | inconclusive: 6.31 µM [inhibitor, partial curve, poor fit]
CCOC(=O)c1c(CN2CCCCC2)n(C)c2cc(Br)c(OC)cc12 | inconclusive: 28.2 µM [inhibitor, single point]
CCOc1ccc(CN2CCN(Cc3cccn3-c3nccs3)CC2CCO)cc1 (stereo not drawn) | inconclusive: 12.6 µM [inhibitor, single point]
COc1ccc(C(O)P(=O)(OCC(C)C)OCC(C)C)c(OC)c1 (stereo not drawn) | inconclusive: 0.316 µM [activator, partial curve, poor fit]
COCCOC(=O)C1=C(C)Nc2cc(=O)[nH]c(=O)n2C1c1cccc([N+](=O)[O-])c1 (stereo not drawn) | inconclusive: 17.8 µM [inhibitor, single point]
CC1CCN(CC(=O)Nc2ccccc2C(=O)c2ccccc2)CC1 | inconclusive: 35.5 µM [inhibitor, single point]
Cc1cc(OCC(=O)N2CCN(c3ccccn3)CC2)cc(C)c1Br | inactive
C=CCSc1n[nH]c2nc3c(c(=O)n12)C1(CCCC1)Cc1ccccc1-3 | inconclusive: 20 µM [activator, single point]
CCOc1cc2c(cc1OCC)-n1cccc1C(c1ccccc1OC)NC2 (stereo not drawn) | inconclusive: 10 µM [inhibitor, partial curve, poor fit]
CC1=C(C(=O)Nc2cccnc2)C(c2cccc(Br)c2)n2nc(SCc3ccccc3)nc2N1 (stereo not drawn) | inactive
O=Nc1ccc(NOC(=O)c2ccccc2)cc1 | inconclusive: 0.1 µM [inhibitor, full curve, poor fit]
COc1ccc(C(=O)Nc2nc3nc(C)c(Cc4ccccc4)c(=O)n3[nH]2)cc1OC | inactive
CC(C)c1ccc(NC(=O)NC2CCN(CC(=O)Nc3cccc4ccccc34)CC2)cc1 | inconclusive: 31.6 µM [inhibitor, single point]
C#CCSc1nnc(-c2sc3ccccc3c2Cl)o1 | inconclusive: 1 µM [activator, full curve, poor fit]
C=CCOc1ccc2cccc(/C=N/NC(=O)c3cc4cc([N+](=O)[O-])ccc4s3)c2c1 | inconclusive: 1.46 µM [inhibitor, partial curve, poor fit]
Cn1c(=O)[nH]c(=O)c2c1nc(N1CCCCC1)n2CCCSc1nc2ccccc2s1 | inconclusive: 10 µM [inhibitor, partial curve, poor fit]
CCN(CC)CCCNC(=O)c1cc(-c2ccc(Cl)cc2)on1 | inconclusive: 18.3 µM [inhibitor, single point]
CCNS(=O)(=O)c1cccc(C(=O)c2c(C)cc3ccccn23)c1 | inconclusive: 3.16 µM [activator, single point]
CCCCc1nc2cc(C(=O)N3CCCCC3CC(=O)OCC)ccc2o1 (stereo not drawn) | inactive
Nc1nccc(-c2cccs2)n1 | inactive
O=C(NCc1ccccc1)C1CC2CCCC(C1)C2=O (stereo not drawn) | inconclusive: 29.1 µM [activator, single point]

SMILES | Potency
O=C(CO/N=C1\CCCc2nonc21)Nc1ccccc1Cl | inactive
Cn1cnc2cc(NCc3cccs3)ccc21 | inconclusive: 15.8 µM [activator, single point]
CC(C)(C)Nc1nc(Nc2ccc([N+](=O)[O-])cc2)nc(NC(C)(C)C)n1 | inconclusive: 0.562 µM [inhibitor, partial curve, poor fit]
COC(=O)N1[C@H]2CC[C@@]3(C)C=C(C)O[C@]1(C)C3c1ccccc12 | inconclusive: 0.0299 µM [activator, full curve, poor fit]
Cc1cccc(C(=O)NCCc2n[nH]c(=S)n2C)c1 | inconclusive: 35.5 µM [activator, partial curve, poor fit]
Nc1ccc2oc(-c3ccc4nc[nH]c4c3)nc2c1 | inconclusive: 6.51 µM [inhibitor, partial curve]
Cc1ccc(C(=O)NNC(=O)c2ccncc2)cc1S(=O)(=O)N1CCCCC1 | inactive
CCSc1nc2c(c(=O)[nH]1)C(c1ccncc1)C(C(=O)OC)=C(C)N2 (stereo not drawn) | inconclusive: 14.6 µM [activator, single point]
COc1ccc(NC(=O)COC(=O)c2ccc(S(=O)(=O)N(C)c3ccccc3OC)cc2)cc1OC | inactive
c1ccc(-c2cn3nc(-c4ccccc4)c(-c4ccccc4)nc3n2)cc1 | inactive
O=C(OCc1cn([C@@H]2CN(C(=O)C3CCCCC3)[C@@H](c3ccc(Cl)cc3)C[C@@H]2O)nn1)c1ccccc1 | inconclusive: 12.5 µM [inhibitor, partial curve]
CCOc1cc2[nH]c(=S)n(C3CC3)c(=O)c2cc1OCC | inconclusive: 35.5 µM [inhibitor, single point]
CC(=C\c1ccco1)/C=C1/SC(=S)N(CC(=O)O)C1=O | inconclusive: 2.24 µM [inhibitor, partial curve, poor fit]
CCOC(=O)C1=C(C)NC(C)=C(C(=O)OCC)C1c1cc2ccc(C)cc2[nH]c1=O | inconclusive: 12.6 µM [inhibitor, single point]
COc1ccc(C(O)Cn2ccsc2=NC(C)=O)cc1 (stereo not drawn) | inconclusive: 3.55 µM [inhibitor, full curve, poor fit]
Cc1oc(-c2ccc(Cl)cc2)nc1CN1CCC(C(=O)NCCCN2CCN(c3cccc(Cl)c3)CC2)CC1 | inconclusive: 25.1 µM [inhibitor, single point]
COc1cccc(CC(NC(C)=O)C(=O)NC2CCN(S(=O)(=O)c3cccc4ccccc34)CC2)c1 (stereo not drawn) | inconclusive: 9.2 µM [inhibitor, partial curve]
O=C(COC(=O)CCN1C(=O)/C(=C\C=C\c2ccccc2)SC1=S)Nc1ccc(Br)cc1 | inconclusive: 2.51 µM [inhibitor, full curve, poor fit]
O=C(NCCOCc1ccc(Cl)cc1)c1ncn[nH]1 | inconclusive: 1.16 µM [activator, single point]
CCc1nc2nc(C)cc(Nc3ccc(OC)cc3OC)n2n1 | inconclusive: 17.8 µM [inhibitor, single point]
CCC(Cc1ccccc1)NC(=O)Cn1ncc2c3ccccc3n(Cc3ccccc3)c2c1=O (stereo not drawn) | inactive

Shown field by field: entries from further up.
Cc1cc(OCC(=O)N2CCN(c3ccccn3)CC2)cc(C)c1Br
  Potency: inactive
Cn1c(=O)[nH]c(=O)c2c1nc(N1CCCCC1)n2CCCSc1nc2ccccc2s1
  Potency: inconclusive: 10 µM [inhibitor, partial curve, poor fit]
O=C(CO/N=C1\CCCc2nonc21)Nc1ccccc1Cl
  Potency: inactive

Following part.

SMILES | Potency
CCOc1ccc(C(=O)c2cn(Cc3ccc(Cl)cc3)c3cc(OC)c(OC)cc3c2=O)cc1 | inconclusive: 8.91 µM [inhibitor, partial curve, poor fit]
Cc1cc(N2CCN(c3ccccc3)CC2)nc(NCc2ccccc2)n1 | inconclusive: 20 µM [inhibitor, single point]
CC(CN1C(C)CCCC1C)OC(=O)c1ccccc1Cl (stereo not drawn) | inconclusive: 31.6 µM [inhibitor, partial curve, poor fit]
CC1CCC(NC(=O)c2cc(S(=O)(=O)N3CCCCC3)ccc2N2CCOCC2)CC1 (stereo not drawn) | inactive
COc1cc(/C=N/n2nnnc2N)ccc1OCc1c(C)no[n+]1[O-] | inconclusive: 2.82 µM [activator, full curve, poor fit]
O=C(CN1C2CCCC1CC(NC(=O)c1ccccc1)C2)Nc1ccccc1C(F)(F)F (stereo not drawn) | inconclusive: 12.6 µM [inhibitor, partial curve, poor fit]
Cc1ccnc(NC(=O)CCC(=O)N(CC(=O)NCc2ccccc2)Cc2cccs2)c1 | inconclusive: 7.94 µM [inhibitor, single point]
NS(=O)(=O)c1ccc(CCNC(=O)CN2CCN(S(=O)(=O)c3ccccc3F)CC2)cc1 | inconclusive: 35.5 µM [inhibitor, single point]
O=C(/C=C/c1ccccc1)Nc1cccc(S(=O)(=O)Nc2ccccc2F)c1 | inconclusive: 7.94 µM [activator, partial curve, poor fit]
COc1ccc(CNC(=O)CN(c2ccc(OC)c(Cl)c2)S(=O)(=O)c2ccc(C)cc2)cc1 | inconclusive: 35.5 µM [inhibitor, single point]
O=C(C1=NN[C@@H]2C(=O)N(c3cccc(F)c3)C(=O)[C@H]12)c1ccc2ccccc2n1 | inactive
CCOc1ccc(NC(=O)CSc2nnc(C)n2C2CC2)cc1S(=O)(=O)N1CCCC1 | inconclusive: 6.31 µM [inhibitor, single point]
Cc1cc(C)c2[nH]c(=O)c(CN(CC3CCCO3)C(=S)Nc3ccccc3)cc2c1 (stereo not drawn) | inconclusive: 1 µM [inhibitor, single point]
Cn1cc(C2OC(=O)c3ccccc32)c2ccccc21 (stereo not drawn) | inconclusive: 20 µM [inhibitor, single point]
CCN(CC)CCNc1nc(-c2ccco2)c2c(c1C#N)CC(C)(C)OC2 | inconclusive: 29.1 µM [inhibitor, single point]
COc1ccc(-n2c(=O)c3sc4ccccc4c3n(CC(=O)Nc3ccccc3F)c2=O)cc1 | inconclusive: 7.94 µM [activator, single point]
O=C(N/N=C\C=C\c1ccc([N+](=O)[O-])o1)c1cccs1 | inconclusive: 22.4 µM [inhibitor, single point]
CC(=O)Nc1nnc(-c2ccco2)o1 | inactive
COc1ccc(NC(=O)COc2ccc(/C=C/c3cccc[n+]3C)cc2OC)cc1 | inconclusive: 4.47 µM [inhibitor, single point]
O=C1c2[nH]nc(-c3ccccc3O)c2C(c2ccccc2F)N1Cc1ccncc1 (stereo not drawn) | inconclusive: 2 µM [inhibitor, full curve, poor fit]
O=[N+]([O-])c1ccc(NCCCN2CCOCC2)c([N+](=O)[O-])c1 | inconclusive: 8.91 µM [activator, partial curve, poor fit]
